Test results reported in patent publication US20180320217A1, “METHODS FOR SAMPLING AND MEASURING ORAL LAVAGE PROTEINS” (The Procter & Gamble Company, priority 2017, published 2018).

B1: ADP-ribosyl cyclase/cyclic ADP-ribose hydrolase 2 (protein, UniProt Q10588 33-293, looked up)
ADP-ribosyl cyclase/cyclic …: RWRGEGTSAHLRDIFLGRCAEYRALLSPEQRNKNCTAIWEAFKVALDKDPCSVLPSDYDLFINLSRHSIPRDKSLFWENSHLLVNSFADNTRRFMPLSDVLYGRVADFLSWCRQKNDSGLDYQSCPTSEDCENNPVDSFWKRASIQYSKDSSGVIHVMLNGSEPTGAYPIKGFFADYEIPNLQKEKITRIEIWVMHEIGGPNVESCGEGSMKVLEKRLKDMGFQYSCINDYRPVKLLQCVDHSTHPDCALKSAAAATQRKA
B2: Legumain (protein, UniProt Q99538 18-323, looked up)
Legumain: VPIDDPEDGGKHWVVIVAGSNGWYNYRHQADACHAYQIIHRNGIPDEQIVVMMYDDIAYSEDNPTPGIVINRPNGTDVYQGVPKDYTGEDVTPQNFLAVLRGDAEAVKGIGSGKVLKSGPQDHVFIYFTDHGSTGILVFPNEDLHVKDLNETIHYMYKHKMYRKMVFYIEACESGSMMNHLPDNINVYATTAANPRESSYACYYDEKRSTYLGDWYSVNWMEDSDVEDLTKETLHKQYHLVKSHTNTSHVMQYGNKTISTMKVMQFQGMKRKASSPVPLPPVTHLDLTPSPDVPLTIMKRKLMNTN
B3: Leukemia inhibitory factor receptor (protein, UniProt P42702 45-1097, looked up)
Leukemia inhibitory factor …: QKKGAPHDLKCVTNNLQVWNCSWKAPSGTGRGTDYEVCIENRSRSCYQLEKTSIKIPALSHGDYEITINSLHDFGSSTSKFTLNEQNVSLIPDTPEILNLSADFSTSTLYLKWNDRGSVFPHRSNVIWEIKVLRKESMELVKLVTHNTTLNGKDTLHHWSWASDMPLECAIHFVEIRCYIDNLHFSGLEEWSDWSPVKNISWIPDSQTKVFPQDKVILVGSDITFCCVSQEKVLSALIGHTNCPLIHLDGENVAIKIRNISVSASSGTNVVFTTEDNIFGTVIFAGYPPDTPQQLNCETHDLKEIICSWNPGRVTALVGPRATSYTLVESFSGKYVRLKRAEAPTNESYQLLFQMLPNQEIYNFTLNAHNPLGRSQSTILVNITEKVYPHTPTSFKVKDINSTAVKLSWHLPGNFAKINFLCEIEIKKSNSVQEQRNVTIKGVENSSYLVALDKLNPYTLYTFRIRCSTETFWKWSKWSNKKQHLTTEASPSKGPDTWREWSSDGKNLIIYWKPLPINEANGKILSYNVSCSSDEETQSLSEIPDPQHKAEIRLDKNDYIISVVAKNSVGSSPPSKIASMEIPNDDLKIEQVVGMGKGILLTWHYDPNMTCDYVIKWCNSSRSEPCLMDWRKVPSNSTETVIESDEFRPGIRYNFFLYGCRNQGYQLLRSMIGYIEELAPIVAPNFTVEDTSADSILVKWEDIPVEELRGFLRGYLFYFGKGERDTSKMRVLESGRSDIKVKNITDISQKTLRIADLQGKTSYHLVLRAYTDGGVGPEKSMYVVTKENSVGLIIAILIPVAVAVIVGVVTSILCYRKREWIKETFYPDIPNPENCKALQFQKSVCEGSSALKTLEMNPCTPNNVEVLETRSAFPKIEDTEIISPVAERPEDRSDAEPENHVVVSYCPPIIEEEIPNPAADEAGGTAQVIYIDVQSMYQPQAKPEEEQENDPVGGAGYKPQMHLPINSTVEDIAAEEDLDKTAGYRPQANVNTWNLVSPDSPRSIDSNSEIVSFGSPCSINSRQFLIPPKDEDSPKSNGGGWSFTNFFQNKPND
B4: Lithostathine-1-alpha (protein, UniProt P05451 23-166, looked up)
Lithostathine-1-alpha: QEAQTELPQARISCPEGTNAYRSYCYYFNEDRETWVDADLYCQNMNSGNLVSVLTQAEGAFVASLIKESGTDDFNVWIGLHDPKKNRRWHWSSGSLVSYKSWGIGAPSSVNPGYCVSLTSSTGFQKWKDVPCEDKFSFVCKFKN
B5: Macrophage colony-stimulating factor 1 (protein, UniProt P09603 33-554, looked up)
Macrophage colony-stimulating …: EEVSEYCSHMIGSGHLQSLQRLIDSQMETSCQITFEFVDQEQLKDPVCYLKKAFLLVQDIMEDTMRFRDNTPNAIAIVQLQELSLRLKSCFTKDYEEHDKACVRTFYETPLQLLEKVKNVFNETKNLLDKDWNIFSKNCNNSFAECSSQDVVTKPDCNCLYPKAIPSSDPASVSPHQPLAPSMAPVAGLTWEDSEGTEGSSLLPGEQPLHTVDPGSAKQRPPRSTCQSFEPPETPVVKDSTIGGSPQPRPSVGAFNPGMEDILDSAMGTNWVPEEASGEASEIPVPQGTELSPSRPGGGSMQTEPARPSNFLSASSPLPASAKGQQPADVTGTALPRVGPVRPTGQDWNHTPQKTDHPSALLRDPPEPGSPRISSLRPQGLSNPSTLSAQPQLSRSHSSGSVLPLGELEGRRSTRDRRSPAEPEGGPASEGAARPLPRFNSVPLTDTGHERQSEGSFSPQLQESVFHLLVPSVILVLLAVGGLLFYRWRRRSHQEPQRADSPLEQPEGSPLTQDDRQVELPV
B6: Macrophage metalloelastase (protein, UniProt P39900 106-470, looked up)
Macrophage metalloelastase: GPVWRKHYITYRINNYTPDMNREDVDYAIRKAFQVWSNVTPLKFSKINTGMADILVVFARGAHGDFHAFDGKGGILAHAFGPGSGIGGDAHFDEDEFWTTHSGGTNLFLTAVHEIGHSLGLGHSSDPKAVMFPTYKYVDINTFRLSADDIRGIQSLYGDPKENQRLPNPDNSEPALCDPNLSFDAVTTVGNKIFFFKDRFFWLKVSERPKTSVNLISSLWPTLPSGIEAAYEIEARNQVFLFKDDKYWLISNLRPEPNYPKSIHSFGFPNFVKKIDAAVFNPRFYRTYFFVDNQYWRYDERRQMMDPGYPKLITKNFQGIGPKIDAVFYSKNKYYYFFQGSNQFEYDFLLQRITKTLKSNSWFGC
B7: Matrilin-2 (protein, UniProt O00339 24-956, looked up)
Matrilin-2: RERSRGRSISRGRHARTHPQTALLESSCENKRADLVFIIDSSRSVNTHDYAKVKEFIVDILQFLDIGPDVTRVGLLQYGSTVKNEFSLKTFKRKSEVERAVKRMRHLSTGTMTGLAIQYALNIAFSEAEGARPLRENVPRVIMIVTDGRPQDSVAEVAAKARDTGILIFAIGVGQVDFNTLKSIGSEPHEDHVFLVANFSQIETLTSVFQKKLCTAHMCSTLEHNCAHFCINIPGSYVCRCKQGYILNSDQTTCRIQDLCAMEDHNCEQLCVNVPGSFVCQCYSGYALAEDGKRCVAVDYCASENHGCEHECVNADGSYLCQCHEGFALNPDKKTCTKIDYCASSNHGCQHECVNTDDSYSCHCLKGFTLNPDKKTCRRINYCALNKPGCEHECVNMEESYYCRCHRGYTLDPNGKTCSRVDHCAQQDHGCEQLCLNTEDSFVCQCSEGFLINEDLKTCSRVDYCLLSDHGCEYSCVNMDRSFACQCPEGHVLRSDGKTCAKLDSCALGDHGCEHSCVSSEDSFVCQCFEGYILREDGKTCRRKDVCQAIDHGCEHICVNSDDSYTCECLEGFRLAEDGKRCRRKDVCKSTHHGCEHICVNNGNSYICKCSEGFVLAEDGRRCKKCTEGPIDLVFVIDGSKSLGEENFEVVKQFVTGIIDSLTISPKAARVGLLQYSTQVHTEFTLRNFNSAKDMKKAVAHMKYMGKGSMTGLALKHMFERSFTQGEGARPLSTRVPRAAIVFTDGRAQDDVSEWASKAKANGITMYAVGVGKAIEEELQEIASEPTNKHLFYAEDFSTMDEISEKLKKGICEALEDSDGRQDSPAGELPKTVQQPTESEPVTINIQDLLSCSNFAVQHRYLFEEDNLLRSTQKLSHSTKPSGSPLEEKHDQCKCENLIMFQNLANEEVRKLTQRLEEMTQRMEALENRLRYR
B8: Mitogen-activated protein kinase 11 (protein, UniProt Q15759 1-364, looked up)
Mitogen-activated protein …: MSGPRAGFYRQELNKTVWEVPQRLQGLRPVGSGAYGSVCSAYDARLRQKVAVKKLSRPFQSLIHARRTYRELRLLKHLKHENVIGLLDVFTPATSIEDFSEVYLVTTLMGADLNNIVKCQALSDEHVQFLVYQLLRGLKYIHSAGIIHRDLKPSNVAVNEDCELRILDFGLARQADEEMTGYVATRWYRAPEIMLNWMHYNQTVDIWSVGCIMAELLQGKALFPGSDYIDQLKRIMEVVGTPSPEVLAKISSEHARTYIQSLPPMPQKDLSSIFRGANPLAIDLLGRMLVLDSDQRVSAAEALAHAYFSQYHDPEDEPEAEPYDESVEAKERTLEEWKELTYQEVLSFKPPEPPKPPGSLEIEQ
B9: Muellerian-inhibiting factor (protein, UniProt P03971 452-560, looked up)
Muellerian-inhibiting factor: SAGATAADGPCALRELSVDLRAERSVLIPETYQANNCQGVCGWPQSDRNPRYGNHVVLLLKMQVRGAALARPPCCVPTAYAGKLLISLSEERISAHHVPNMVATECGCR
B10: N-acylethanolamine-hydrolyzing acid amidase (protein, UniProt Q02083 29-359, looked up)
N-acylethanolamine-hydrolyzing …: SPPAAPRFNVSLDSVPELRWLPVLRHYDLDLVRAAMAQVIGDRVPKWVHVLIGKVVLELERFLPQPFTGEIRGMCDFMNLSLADCLLVNLAYESSVFCTSIVAQDSRGHIYHGRNLDYPFGNVLRKLTVDVQFLKNGQIAFTGTTFIGYVGLWTGQSPHKFTVSGDERDKGWWWENAIAALFRRHIPVSWLIRATLSESENFEAAVGKLAKTPLIADVYYIVGGTSPREGVVITRNRDGPADIWPLDPLNGAWFRVETNYDHWKPAPKEDDRRTSAIKALNATGQANLSLEALFQILSVVPVYNNFTIYTTVMSAGSPDKYMTRIRNPSRK

Test system: proteins in oral lavage
Assay: Abundance of proteins in human oral lavage (SomaLogic), TABLE 1
Assay type: in vivo
Conditions: for Means (Original Scale) High bleeder BL / Means (Original Scale) High bleeder W4 / Means (Original Scale) Low bleeder BL: abundance in oral lavage; for Means (Original Scale) High bleeder BL: high bleeders (gingivitis); for Means (Original Scale) High bleeder BL / Means (Original Scale) Low bleeder BL: baseline; for Means (Original Scale) High bleeder W4 / Fold Change High bleeder W4 vs High bleeder BL: high bleeders; for Means (Original Scale) High bleeder W4: week 4 of investigative products; for Means (Original Scale) Low bleeder BL: low bleeders (healthy); for Fold Change High bleeder BL vs Low bleeder BL / Fold Change High bleeder W4 vs High bleeder BL: oral lavage; for Fold Change High bleeder BL vs Low bleeder BL: high bleeders vs low bleeders at baseline; for Fold Change High bleeder W4 vs High bleeder BL: week 4 of investigative products vs baseline

Molecule | Means (Original Scale) High bleeder BL | Means (Original Scale) High bleeder W4 | Means (Original Scale) Low bleeder BL | Fold Change High bleeder BL vs Low bleeder BL | Fold Change High bleeder W4 vs High bleeder BL
B1 | 35309 | 21260 | 14521 | 2.53 | 0.59
B2 | 65072 | 41251 | 23410 | 2.73 | 0.66
B3 | 1001 | 562 | 228 | 3.76 | 0.58
B4 | 7884 | 4725 | 5643 | 1.81 | 0.58
B5 | 6274 | 4163 | 2422 | 2.61 | 0.66
B6 | 16571 | 5282 | 2096 | 6.43 | 0.48
B7 | 17458 | 8756 | 2992 | 7.28 | 0.63
B8 | 239 | 108 | 55 | 3.23 | 0.58
B9 | 1634 | 1097 | 671 | 2.57 | 0.72
B10 | 1737 | 606 | 121 | 6.62 | 0.52
